Data taken from PubChem BioAssay AID1487 (National Center for Advancing Translational Sciences (NCATS), 2009).
The other results are listed elsewhere or left out. Further columns of the screen follow, without active or inactive calls. Most of these compounds were active or inconclusive in the main read-out, so they are no random draw. Potencies come from curve fits of mixed quality, noted in brackets.

Assay: qHTS Assay for Modulators of Lamin A Splicing
Details: HeLa LMNA splicing GFP/RFP minigene ratio, 48 h
Procedure, shortened: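 Read-out is the ratio of GFP to DsRed2 object intensity, acquired by 488 nm laser-scanning cytometry on HeLa lamin A-EGFP minigene reporter cells. Compound incubation 48 hrs at 37 °C in Opti-MEM with 2% FBS; DMSO 0.5% final.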

[1] = measured here: GFP splicing reporter channel
[2] = measured here: RFP viability control channel

Structure (SMILES)	AC50 [1]	AC50 [2]
Cc1ccc(CS/C(Nc2ccccc2C)=C(\C#N)C(=O)NCc2ccco2)c(C)c1	15.8 µM [rising, partial curve]	17.8 µM [rising, single point]
COc1ccc(CCNC(=O)c2ccc(=O)[nH]c2)cc1		3.16 µM [falling, partial curve, poor fit]
O=S(=O)(c1ccc2nc(-c3ccccc3)[nH]c2c1)N1CCN(c2ccc(Cl)cc2)CC1	8.91 µM [rising, partial curve, poor fit]	5.01 µM [rising, partial curve, poor fit]
CCn1c(SCC(=O)Nc2nc(-c3ccccc3)cs2)nnc1-c1ccccc1O	7.08 µM [rising, full curve]	4.47 µM [rising, full curve]
O=C(Cn1cc(S(=O)(=O)Cc2cccc(Cl)c2)c2ccccc21)Nc1ccccc1C(F)(F)F	31.6 µM [falling, partial curve]	10 µM [falling, partial curve]
O=C1/C(=C\c2ccco2)SC(=S)N1Cc1ccccc1		10 µM [falling, single point]
CCn1c(CN2CCN(c3cccc(C)c3C)CC2)n[nH]c1=S	3.98 µM [rising, partial curve]	20 µM [rising, single point]
Cc1ccc(NN2C(=O)C=C(c3ccccc3)C2=O)cc1		12.6 µM [falling, partial curve]
Cc1ccccc1Cn1nc(C)c(NC(=O)c2noc3c2CCc2ccccc2-3)c1C		11.2 µM [rising, partial curve]
N[C@H](C(=O)O)[C@H]1C[C@@H]1C(=O)O		0.002 µM [falling, full curve, poor fit]
CC[C@H](C)C(=O)O[C@@H]1C[C@H](C)C=C2C=C[C@H](C)[C@@H](CC[C@H]3C[C@@H](O)CC(=O)O3)[C@H]21	1.12 µM [falling, single point]	1.41 µM [falling, full curve, poor fit]
CCOC(=O)c1c(N)nn(C(=O)c2ccccc2F)c1-c1ccc(OC)cc1	0.00794 µM [falling, full curve, poor fit]	0.01 µM [falling, full curve, poor fit]
O=C(N/N=C/c1ccc([N+](=O)[O-])o1)C1CC1		15.8 µM [rising, partial curve, poor fit]
CC1(C)SC(=S)N(/N=C/c2ccccc2)C1N(O)C(=O)Nc1ccc([N+](=O)[O-])cc1 (stereo unspecified)	11.2 µM [falling, single point]	

3 compounds from above, arranged by count of non-hydrogen atoms, rising:
Structure (SMILES)	AC50 [1]	AC50 [2]
O=C(N/N=C/c1ccc([N+](=O)[O-])o1)C1CC1		15.8 µM [rising, partial curve, poor fit]
COc1ccc(CCNC(=O)c2ccc(=O)[nH]c2)cc1		3.16 µM [falling, partial curve, poor fit]
Cc1ccc(CS/C(Nc2ccccc2C)=C(\C#N)C(=O)NCc2ccco2)c(C)c1	15.8 µM [rising, partial curve]	17.8 µM [rising, single point]
